Data published in PubChem BioAssay AID493014 (National Center for Advancing Translational Sciences (NCATS), 2011).
Some of the results follow. These are further read-outs of the screen, such as a control signal, another cell line or another target. No call is given for them. The list favours compounds with an active or inconclusive main result. Words in brackets tell the shape of the fitted curve; partial curves, single points and poor fits give uncertain potencies.

Assay: qHTS Assay to Find Inhibitors of Chronic Active B-Cell Receptor Signaling
Conditions: ABC-DLBCL IkBa-CBG/CBR reporter, luminescence ratio (green luciferase fused to IkBa over red control in TMD8 lymphoma cells), 4 h
Summary of the method: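 Cell line TMD8 (human ABC DLBCL), stably expressing tet-inducible CBG68-IkBa fusion and CBR; IMDM/0.5% FBS; cpd up to 46 uM; dox induction, 4 h, 37C/5% CO2; dual luminescence; green/red ratio; MG132 control.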

[1] = measured here: CBR red luminescence, cell number
[2] = measured here: IkBa-CBG green luminescence

SMILES | AC50 [1] | AC50 [2]
O=C(CONS(=O)(=O)c1ccc(Cl)cc1)NCCNc1ncc(C(F)(F)F)cc1Cl | 12.6 µM [falling, single point] | –
CC(=O)N1CCN(Cc2nc3cc(NC(=O)c4ccccc4C)ccc3n2C)CC1 | 10 µM [falling, partial curve, poor fit] | –
O=C(N/N=C/c1ccc(OC(=O)c2cccs2)cc1)c1ccccn1 | 8.91 µM [falling, partial curve] | –
O=C(CNc1cc(S(=O)(=O)N2CCOCC2)ccc1NCC1CCCO1)Nc1ccc(F)c(F)c1 (stereo not given) | 17.8 µM [falling, single point] | –
O=C(NCc1cccnc1)c1ccc(-c2ccc(Cl)cc2)o1 | 2.24 µM [rising, partial curve] | –
c1ccc(Oc2cccc(OCCCn3cncn3)c2)cc1 | 10.3 µM [falling, partial curve] | –
CCn1cc(C(=O)NCC2CCCO2)c(=O)c2cc(S(=O)(=O)N3CCCCC3)ccc21 (stereo not given) | 3.55 µM [rising, single point] | –
CCOc1ccc2c(CC)cc(=O)oc2c1OCC | 20.6 µM [rising, partial curve] | 20.6 µM [falling, single point]
O=C(/C=C/c1ccc(F)cc1)NCCNC(=O)/C=C/c1ccc(F)cc1 | 35.5 µM [rising, single point] | –
COc1ccccc1N(CC(=O)Nc1cccnc1)S(C)(=O)=O | 6.31 µM [falling, single point] | –
Cc1nnc(SCC(=O)NC2CCCCCC2)n1N | 29.1 µM [rising, single point] | –
COc1cccc(N2CCN(CC(=O)NC3=Nc4ccccc4N=C(C)C3c3ccccc3)CC2)c1 (stereo not given) | 25.1 µM [falling, single point] | –
O=S(=O)(NCc1cc(-c2ccccc2)no1)c1ccc(Cl)cc1 | 8.91 µM [rising, partial curve] | –
Cn1c(=O)c2c(nc(NCc3cccnc3)n2Cc2ccc(Cl)cc2)n(C)c1=O | 1.16 µM [falling, full curve] | –
Cc1ccccc1N=Cc1cc2c(cc1O)OC(N)=C(C#N)C2c1ccccc1 (stereo not given) | 20.6 µM [falling, partial curve] | 23.1 µM [rising, partial curve, poor fit]
Nc1ccnn1Cc1ccc(Br)s1 | 5.17 µM [rising, single point] | –
COc1ccccc1-c1noc(CSc2nc(C)cc(=O)[nH]2)n1 | 35.5 µM [falling, single point] | –
Cc1ccc(C2=NNC3(CCOC(C)(C)C3)S2)cc1 (stereo not given) | 35.5 µM [falling, single point] | –
CCCCOc1cccc(C(=O)NNC(=S)NC2CCCCC2)c1 | 16.4 µM [falling, partial curve, poor fit] | –
COc1ccccc1-n1c(=S)[nH]c2c(sc(=S)n2-c2ccccc2C)c1=O | 14.1 µM [falling, partial curve, poor fit] | –
CC(=O)Nc1ccc(S(=O)(=O)Nc2cccc3cccnc23)cc1 | 2 µM [rising, partial curve, poor fit] | –

Three entries out of the list, sorted by count of non-hydrogen atoms, rising:
SMILES | AC50 [1] | AC50 [2]
c1ccc(Oc2cccc(OCCCn3cncn3)c2)cc1 | 10.3 µM [falling, partial curve] | –
CC(=O)Nc1ccc(S(=O)(=O)Nc2cccc3cccnc23)cc1 | 2 µM [rising, partial curve, poor fit] | –
CCn1cc(C(=O)NCC2CCCO2)c(=O)c2cc(S(=O)(=O)N3CCCCC3)ccc21 (stereo not given) | 3.55 µM [rising, single point] | –

(more compounds)

SMILES | AC50 [1] | AC50 [2]
CCCc1nc2scc(-c3ccccc3)c2c(=O)n1N | 3.66 µM [rising, full curve, poor fit] | –
COC(=O)c1ccc(NC(=S)Nc2ccc3ccccc3c2)cc1 | 10.3 µM [falling, partial curve] | –
COc1cccc(C(=O)NCCn2ccc3ccccc32)c1 | 6.51 µM [falling, partial curve] | –
OCCSc1ncnc2c1oc1ccccc12 | 2.51 µM [falling, single point] | –
Nc1ccc2nc(NC(=O)C3CCCCC3)sc2c1 | 7.08 µM [falling, partial curve, poor fit] | –
O=C(Nc1ccc2c(c1)C(=O)NC2=O)c1ccccc1Cl | 35.5 µM [falling, single point] | –
COC(=O)Nc1nnc(/C=C/c2ccccc2)s1 | 1.16 µM [rising, partial curve, poor fit] | –
O=C(N/N=C/c1cccs1)c1[nH]ncc1Br | 14.1 µM [falling, partial curve] | –
O=C(CN1C(=O)N/C(=C\c2ccccc2OCc2ccc(C(=O)O)cc2)C1=O)Nc1ccccc1F | 0.112 µM [falling, partial curve, poor fit] | –
C=CCn1c(NCc2cc(C)ccc2O)nc2ccccc21 | 29.1 µM [falling, single point] | –
Clc1ccccc1CSC1=NCCN1 | 35.5 µM [falling, single point] | –
O=C(N/N=C/c1ccncc1)c1nn(Cc2ccccc2)c(=O)c2ccccc12 | 35.5 µM [falling, single point] | –
O=C(CCCc1nc(-c2ccccc2)no1)NC1CCCCC1 | 14.1 µM [rising, partial curve, poor fit] | 5.62 µM [rising, partial curve, poor fit]
Nc1nnnn1CC(=O)N/N=C/C=C/c1ccccc1 | 17.8 µM [rising, single point] | –
COC(=O)c1cc(=O)n(CCc2ccccc2F)c(=Nc2ccc(F)c(Cl)c2)s1 | 5.17 µM [falling, full curve] | –
COc1cc2cnc(CCO[C@H]3CCCCO3)cc2cc1OC | 32.6 µM [rising, single point] | –
O=C(NCc1cc(F)cc(C(F)(F)F)c1)C1CCC(=O)N(C2CCCC2)C1 (stereo not given) | 20 µM [falling, single point] | –
COc1ccc2sc(N(CCCN(C)C)C(=O)c3ccc(S(=O)(=O)N4CCCC4)cc3)nc2c1 | 0.58 µM [falling, full curve, poor fit] | –
CCSc1ccccc1C(=O)NCc1cccnc1 | 5.62 µM [falling, single point] | –
CCN(CC)CCP(=O)(c1ccccc1)c1ccccc1 | 32.6 µM [rising, single point] | –
O=C1NC(=S)N/C1=C/c1cccc2ccccc12 | 11.2 µM [rising, partial curve, poor fit] | –
